{"source": "PubChem BioAssay (NCATS)", "note": "Inconclusive means that the source gave no clear call. Such entries were picked first, then a sample of the others. Potencies of inconclusive entries are doubtful fits and often do not repeat. Calls of active or inactive are those of the source. Calls follow the shape of the dose curve; as a rule, active = well fitted cell-killing curve with a large enough effect; inconclusive = small, poorly fitted or top-dose-only effect, or effect the other way; inactive = no such curve, though single readings can be large or run the other way. Potency is read from the fitted curve at half-maximal effect."}
{"experiment": "Quantitative High-Throughput drug screen in 47 multiple myeloma cell lines against the NCATS MIPE library collection: MOLP8_DSMZ cell viability assay (AID 1918977); also: nearly all actives have a fitted effect of over 45% in size;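 as to viability (% of control): 100% = DMSO-only wells and 0% = media-only wells without cells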", "details": "MOLP8 myeloma viability, CellTiter-Glo ATP luminescence, 48 h; viability (% of control): at 45.8 µM (top of the series)", "procedure,_shortened": "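qHTS format: cells plated (500/well), pin-dosed with MIPE 4.0 compounds, kept 48 h at 37 °C. Readout was CellTiter-Glo luminescence, median RLU.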"}
{"smiles": "CC1=C(C)C(=O)C(C(CCCCCC(=O)O)c2ccccc2)=C(C)C1=O", "note": "(stereo unspecified)", "Potency": "inconclusive: 0.0019 µM [rising, full curve, poor fit]"}
{"smiles": "CO[C@H]1C(=O)[C@]2(C)[C@@H](OC)C[C@H]3OC[C@@]3(OC(C)=O)[C@H]2[C@H](OC(=O)c2ccccc2)[C@]2(O)C[C@H](OC(=O)[C@H](O)[C@@H](NC(=O)OC(C)(C)C)c3ccccc3)C(C)=C1C2(C)C", "Potency": "inconclusive: 0.0021 µM [rising, full curve, poor fit]"}
{"smiles": "C[C@@H]1CCN(C(=O)CC#N)C[C@H]1N(C)c1ncnc2[nH]ccc12", "viability (% of control)": "inactive: 70.6%"}
{"smiles": "CCc1ccc(C=C2SC(=S)NC2=O)cc1", "viability (% of control)": "inactive: 65.9%"}
{"smiles": "O=c1c(-c2ccc(O)cc2)coc2cc(O)ccc12", "Potency": "inconclusive: 4.69 µM [cytotoxic, partial curve, poor fit]"}
{"smiles": "Cc1cccc(C#Cc2ccccc2)n1", "Potency": "inconclusive: 16.6 µM [cytotoxic, partial curve, poor fit]"}
{"smiles": "Nc1nc(F)nc2c1ncn2[C@@H]1O[C@H](COP(=O)(O)O)[C@@H](O)[C@H]1O", "Potency": "inconclusive: 29.6 µM [cytotoxic, single point]"}
{"smiles": "O=C(Nc1ccccc1)Nc1ccc(-c2ccc(C(=O)[C@H]3CCC[C@H]3C(=O)O)cc2)cc1", "Potency": "inconclusive: 2.35 µM [cytotoxic, full curve, poor fit]"}
{"smiles": "NC1CCC(Nc2nc(Nc3ccc(C(=O)N4CCCCC4)cc3)c3ncn(-c4cccc(F)c4)c3n2)CC1", "note": "(stereo unspecified)", "viability (% of control)": "inactive: 104%"}
{"smiles": "O=C(O)c1cccc(-c2noc(-c3ccccc3F)n2)c1", "Potency": "inconclusive: 16.6 µM [cytotoxic, partial curve, poor fit]"}
{"smiles": "O=c1c(O)c(-c2ccc(O)c(O)c2)oc2cc(O)cc(O)c12", "viability (% of control)": "inactive: 76.5%"}
{"smiles": "Cc1[nH]c(C=C2C(=O)Nc3ccccc32)c(C)c1CCC(=O)O", "Potency": "inconclusive: 11.8 µM [cytotoxic, partial curve]"}
{"smiles": "CC1(C)OC2=C(C(=O)c3ccccc3C2=O)[C@H](NCc2ccccc2)[C@H]1O", "Potency": "active: 2.96 µM"}
{"smiles": "CC[C@@H](C)[C@H](NC(=O)[C@H](CC1CCCCC1)NC(=O)c1ccno1)C(=O)N1CCC2(CCc3ccccc32)CC1", "Potency": "inconclusive: 29.6 µM [cytotoxic, partial curve, poor fit]"}
{"smiles": "CS(=O)(=O)CCNCc1ccc(-c2ccc3ncnc(Nc4ccc(OCc5cccc(F)c5)c(Cl)c4)c3c2)o1", "Potency": "active: 26.4 µM"}
{"smiles": "CC(C)(C)COc1ccc(-n2cc(C(=O)O)cn2)cc1C#N", "viability (% of control)": "inactive: 95.7%"}
{"smiles": "CC(=O)Oc1cc2c(s1)CCN(C(C(=O)C1CC1)c1ccccc1F)C2", "note": "(stereo unspecified)", "Potency": "inconclusive: 2.35 µM [cytotoxic, full curve]"}
{"smiles": "COc1cc2c(cc1OC)CN(CCc1ccc(NC(=O)c3cc(OC)c(OC)cc3NC(=O)c3cnc4ccccc4c3)cc1)CC2", "viability (% of control)": "inactive: 83.8%"}
{"smiles": "CC(=O)Oc1ccccc1C(=O)O", "viability (% of control)": "inactive: 120%"}
{"smiles": "O=c1c2ccccc2nc2n1CCc1c-2[nH]c2ccccc12", "viability (% of control)": "inactive: 97.8%"}
{"smiles": "CCOc1ccc(Cc2cc([C@@H]3O[C@H](CO)[C@@H](O)[C@H](O)[C@@H]3O)ccc2Cl)cc1", "Potency": "inconclusive: 0.0059 µM [rising, full curve, poor fit]"}
{"smiles": "CN1CCN(C2=Nc3cc(Cl)ccc3Nc3ccccc32)CC1", "viability (% of control)": "inactive: 114%"}
{"smiles": "CCOC1OC(=O)C[C@H]1NC(=O)[C@@H]1CCCN1C(=O)[C@@H](NC(=O)c1ccc(N)c(Cl)c1)C(C)(C)C", "note": "(stereo partly specified)", "viability (% of control)": "inactive: 90.2%"}
{"smiles": "O=C(CCN1CCN(C(=O)OCc2cc(Cl)cc(Cl)c2)CC1)c1ccc2[nH]c(=O)oc2c1", "viability (% of control)": "inactive: 105%"}
{"smiles": "O=C(O)c1cc(=O)c2c(OCC(O)COc3cccc4oc(C(=O)O)cc(=O)c34)cccc2o1", "Potency": "inconclusive: 0.001 µM"}
{"smiles": "CO[C@H]1O[C@@H]2O[C@@]3(C)CC[C@@H]4[C@@H](C)CC[C@@H]([C@H]1C)[C@@]24OO3", "Potency": "inconclusive: 1.66 µM [cytotoxic, full curve, poor fit]"}
{"smiles": "Cc1[nH]c(=O)c(C#N)cc1-c1ccc2nccn2c1", "Potency": "inconclusive: 0.0053 µM [rising, full curve, poor fit]"}
{"smiles": "Cc1c(OCC(F)(F)F)ccnc1CS(=O)c1nc2ccccc2[nH]1", "note": "(stereo unspecified)", "viability (% of control)": "inactive: 111%"}
{"smiles": "CCCn1c(=O)c2[nH]c(C34CC5CC3C[C@@H](C5)C4)nc2n(CCC)c1=O", "Potency": "inconclusive: 5.26 µM [cytotoxic, partial curve, poor fit]"}
{"smiles": "C[C@H](NC(=O)[C@@H](O)c1cc(F)cc(F)c1)C(=O)N[C@@H]1C(=O)N(C)c2ccccc2-c2ccccc21", "viability (% of control)": "inactive: 95.4%"}
{"smiles": "Cc1ccc(NC(=O)c2ccc(CN3CCN(C)CC3)cc2)cc1Nc1nccc(-c2cccnc2)n1", "viability (% of control)": "inactive: 81.9%"}
{"smiles": "Cc1[nH]c(=O)c(C#N)cc1-c1ccncc1", "Potency": "inconclusive: 1.87 µM [rising, full curve, poor fit]"}
{"smiles": "Clc1ccc2nsnc2c1NC1=NCCN1", "viability (% of control)": "inactive: 87.7%"}
{"smiles": "COc1ccnc(CS(=O)c2nc3ccc(OC(F)F)cc3[nH]2)c1OC", "note": "(stereo unspecified)", "viability (% of control)": "inactive: 129%"}
{"smiles": "CCNC(=O)c1noc(-c2cc(C(C)C)c(O)cc2O)c1-c1ccc(CN2CCOCC2)cc1", "Potency": "inconclusive: 0.0296 µM [cytotoxic, full curve, poor fit]"}
{"smiles": "CC(C)(O)[C@H]1CC[C@@](C)([C@H]2[C@@H](O)C[C@@]3(C)[C@@H]4C[C@H](O[C@@H]5O[C@H](CO)[C@@H](O)[C@H](O)[C@@H]5O)[C@H]5C(C)(C)[C@@H](O[C@@H]6OC[C@@H](O)[C@H](O)[C@@H]6O)CC[C@@]56C[C@@]46CC[C@]23C)O1", "viability (% of control)": "inactive: 119%"}
